The list shows a part of the results. Shown are side measurements of this screen, not its main read-out; they come without a call.
Assay: NIH3T3 cell viability loss – plate reader, cherry-pick, two tests, cytotoxicity control, dose response (AID 651900)
Details: test 2 concentration series, at 26 µM

Row | Structure (SMILES) | activity [%]
1 | COc1ccc(NC2CCCN(C(=O)c3ccc(C(C)=O)s3)C2)cc1 (centres undefined) | -0.782
2 | Cc1nc(-c2cccnc2)sc1C(=O)Nc1cccc(C(F)(F)F)c1 | -2.17
3 | COc1ccc(-c2ccc3c(c2)C2CC3CCN2)cc1 (centres undefined) | -7.85
4 | CCc1c(C)nc2ncnn2c1Nc1ccc(C#N)c(Cl)c1 | -6.62
5 | CCC(Sc1nc2ccsc2c(=O)n1Cc1ccc(C(=O)O)cc1)C(=O)Nc1cccc(OC)c1 (centres undefined) | -1.02
6 | O=C(Nc1ccc(F)c(Cl)c1)C1CCCN(c2cnccn2)C1 (centres undefined) | -8.84
7 | COc1cccc(NC(=O)CCC2CCN(C(=O)c3ccc(C(C)=O)s3)CC2)c1 | -0.165
8 | O=C(Nc1ncc2c(n1)CC(c1ccccc1)CC2=O)c1ccco1 (centres undefined) | 2.71
9 | CC1Cc2nc(SCC(=O)N3CCOCC3)n(-c3ccccc3)c(=O)c2S1 (centres undefined) | -1.85
10 | Clc1ccc(CSc2nnc(-c3cccnc3)o2)cc1 | -2.62
11 | COc1ccc(C(=O)Nc2cccnc2)cc1OC | -1.88
12 | Cc1nc2nc(SCC(=O)N3CCOCC3)nn2c(C)c1Cc1ccccc1 | -6.33
13 | CC(=O)c1ccc(NC(=O)C2CC(=O)N(Cc3ccccc3)C2)cc1 (centres undefined) | -12.7
14 | O=C(Nc1ccc(F)c(F)c1)C1CCN(S(=O)(=O)c2cccs2)CC1 | -5.08
15 | CC(=O)c1ccc(N2CCN(C(=O)Cc3ccccc3)CC2)c(F)c1 | 2.1
16 | O=C(O)CCS(=O)(=O)c1nc(-c2cccs2)cc(C(F)(F)F)n1 | -1.62
17 | C#CCSc1nnc(-c2sc(-c3ccccc3)nc2C)n1C | 2.88
18 | COc1cc(-c2n[nH]c(=S)n2C(C)c2ccccc2)cc(OC)c1OC (centres undefined) | 1.03
19 | COc1ccc(NC(=O)c2ccc(-n3cncn3)c([N+](=O)[O-])c2)cc1OC | -1.79

Another view of some results above.
Row	Structure (SMILES)	activity [%]
2	Cc1nc(-c2cccnc2)sc1C(=O)Nc1cccc(C(F)(F)F)c1	-2.17
3	COc1ccc(-c2ccc3c(c2)C2CC3CCN2)cc1 (centres undefined)	-7.85

Reference: PubChem BioAssay AID651900 (Broad Institute, 2012)
